Consider one sequence from patent US20060191037.

Chains of the proteins cited; added tags and fusions are not shown. Lines headed by an entry give the natural chain unless they say otherwise; changes in a name come on top.
UniProt Q6VWJ6: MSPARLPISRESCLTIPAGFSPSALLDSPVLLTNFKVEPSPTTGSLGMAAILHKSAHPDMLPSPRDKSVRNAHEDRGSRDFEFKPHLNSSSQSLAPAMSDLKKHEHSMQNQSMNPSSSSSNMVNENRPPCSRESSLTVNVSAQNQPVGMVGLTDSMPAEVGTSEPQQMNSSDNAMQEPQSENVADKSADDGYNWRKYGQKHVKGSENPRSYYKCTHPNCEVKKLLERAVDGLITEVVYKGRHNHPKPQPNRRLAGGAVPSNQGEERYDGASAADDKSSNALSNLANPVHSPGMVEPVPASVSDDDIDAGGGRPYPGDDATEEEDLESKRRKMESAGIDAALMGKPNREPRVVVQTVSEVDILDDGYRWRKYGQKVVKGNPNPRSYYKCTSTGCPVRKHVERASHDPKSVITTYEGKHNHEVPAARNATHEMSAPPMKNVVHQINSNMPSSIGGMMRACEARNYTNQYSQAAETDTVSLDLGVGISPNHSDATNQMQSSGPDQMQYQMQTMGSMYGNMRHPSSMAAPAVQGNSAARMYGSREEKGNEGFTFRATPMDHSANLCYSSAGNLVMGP

Weaker means in comparison with the reference protein, sequence or condition of that experiment.

The target in the series is SUSIBA2 (WRKY transcription factor + purified fraction with 70 and 68 kDa forms) (Hordeum vulgare) (UniProt Q6VWJ6). Description: footprint. To be noted: within promoter fragment; weaker than SURE-b; purified recombinant protein; protein details: N-terminal His-tag (pET-15b, E. coli BL21(DE3)).

With “CCGAAAAAAACTAAGAAAGACCGATG (double strand) [iso1 SURE-a site]”, the binding result is reported as “binds more weakly”.
